In article PMC9262611:
These are yes or no findings as the source states them, for the method shown. Binding seen in cells or lysates may run through a third protein. These calls come from enrichment with a bait or labelling near it, and not all partners need be listed.

B1: FLN2, endogenous (protein, UniProt F4I0K2 45-614)
chain: AAGRRKLSESAPLEEEGNDGNGAVVGKKPSKSVKRTTKKKVVVKDEPLEEISEFLVDNDDVLDKESIVSALKPKKTRTRKKAAAASSDVEEVKTEKKVRRKRTVKKDKDVEDDLATIMDAEVSDVEEALAVESTDTESEEEEIDLSKHEGEDISHTYGWPPLVCCFGSAQHAFVPSGRPANRLLDYELHERMRDAKWAPEKYIRAPGGCAGGVAIALASLGGKVAFMGKLGADDYGQAMLYYLNVCKVQTRSVKIDGKRVTACSTMKISKRGRLKSTCIKPCAEDSLSKSEINVDVLKEAKMFYFSTHSLLDKKMMSTTIQAIKISKQLGNVIFYDLNLPLPLWHSSEETKSFIQEVWNLADVIEITKQELEFLCGIEPTEEFDTENNDISKFVHYPPETVEQLWHENLKVLFVTNGTSKIHYYTKEHNGAVSGMEDVPITPFTRDMSASGDGIVAGLIRMLTVQPDLMNNKGYLERTARYAIECGIIDQWLLAQTRGYPPKDDMEEEEDDEEEDEVESDPNGIRSITEKEYRTSKPYDEPDGPYVMKPVEEREYKKLELVGSMFEDGSL
B2: AtMurE, endogenous (protein, UniProt F4I3P9 41-772)
chain: AAGPARRNSYPNPADDDPPEAPEDSMHGVSKFQQIQRQAARARKLEEEDFEKNRNTYLSAIADVEDAAETGRDDEESGGDLFSDIDRAISMKRSEFVKQGLLKPNPPKTASLKKIGEEGNEEEGDVTDDVDELDEEEVVDLDEIDKLTGLTEISDEEDWVDEEGNTRINKKKEFGSDHQFEFDLDDFGESKARIVEPKFKMCLAELLDESKVVPISVYGDLDVEITGIQHDSRGVSAGDLFVCCLGSENFLSEADKRGAVAVVASKEIDIEDTLGCRALVIVEDTNAVLAALASSFYRHPSKNMSVIGVTGTDGKTTTTYLIKSLYEAMGVRTGMFSTVSCYIHGDNKLDTPNATMNPDAVLVQSLMAKMLHNGTESLVMEASPQELALGKCDEVDFDIAVFTNLTRENTDFRGTDEEYRDAEAKLFSRMVDPERHRKVVNIDDPNAAFFVQQGNPNVPVVTFAMENTKADVHPLKFELSLFETQVLVNTPQGILEISSGLLGRHNIYNILAAVAVGIAVGAPLEDIVRGVEEVDAVPGRCELIDEEQAFGVIVDHANTPDGLSRLLDSIRELKPRRIITVIGCEGENERGKRPLMTKIATEKSDVTMLTSDNPRNEDPLDILDDMLSGIGWTMQEYLKHGEHDYYPPLANGHRLFLHDIRRVAVRCAVAMGEEGDMVVVAGKGHEAYQLEGEKKEFYDDREECREALQYVDELHQAGIDTSEFPWRLPESH
B3: PRPS10, endogenous (protein, UniProt Q9LK61 57-191)
chain: AVPDTLDPTPEILDEPASEVPSSSSISVDADKMAPKQKIRIKLRSYWVPLIEDSCKQILDAARNTNAKTMGPVPLPTKKRIYCVLKSPHVHKDARFHFEIRTHQRMIDILYPTAQTIDSLMQLDLPAGVDVEVKL
B4: TRX z, endogenous (protein, UniProt Q9M7X9 82-183)
chain: AQELQELVKGDRKVPLIVDFYATWCGPCILMAQELEMLAVEYESNAIIVKVDTDDEYEFARDMQVRGLPTLFFISPDPSKDAIRTEGLIPLQMMHDIIDNEM
B5: pTAC2, endogenous (protein, UniProt Q9S7Q2 67-862)
chain: VEKGKYSYDVESLINKLSSLPPRGSIARCLDIFKNKLSLNDFALVFKEFAGRGDWQRSLRLFKYMQRQIWCKPNEHIYTIMISLLGREGLLDKCLEVFDEMPSQGVSRSVFSYTALINAYGRNGRYETSLELLDRMKNEKISPSILTYNTVINACARGGLDWEGLLGLFAEMRHEGIQPDIVTYNTLLSACAIRGLGDEAEMVFRTMNDGGIVPDLTTYSHLVETFGKLRRLEKVCDLLGEMASGGSLPDITSYNVLLEAYAKSGSIKEAMGVFHQMQAAGCTPNANTYSVLLNLFGQSGRYDDVRQLFLEMKSSNTDPDAATYNILIEVFGEGGYFKEVVTLFHDMVEENIEPDMETYEGIIFACGKGGLHEDARKILQYMTANDIVPSSKAYTGVIEAFGQAALYEEALVAFNTMHEVGSNPSIETFHSLLYSFARGGLVKESEAILSRLVDSGIPRNRDTFNAQIEAYKQGGKFEEAVKTYVDMEKSRCDPDERTLEAVLSVYSFARLVDECREQFEEMKASDILPSIMCYCMMLAVYGKTERWDDVNELLEEMLSNRVSNIHQVIGQMIKGDYDDDSNWQIVEYVLDKLNSEGCGLGIRFYNALLDALWWLGQKERAARVLNEATKRGLFPELFRKNKLVWSVDVHRMSEGGMYTALSVWLNDINDMLLKGDLPQLAVVVSVRGQLEKSSAARESPIAKAAFSFLQDHVSSSFSFTGWNGGRIMCQRSQLKQLLSTKEPTSEESENKNLVALANSPIFAAGTRASTSSDTNHSGNPTQRRTRTKKELAGSTA
B6: FSD2 (PAP9), endogenous (protein, UniProt Q9LU64 47-305)
chain: GVITAGFELKPPPYPLDALEPHMSRETLDYHWGKHHKTYVENLNKQILGTDLDALSLEEVVLLSYNKGNMLPAFNNAAQAWNHEFFWESIQPGGGGKPTGELLRLIERDFGSFEEFLERFKSAAASNFGSGWTWLAYKANRLDVANAVNPLPKEEDKKLVIVKTPNAVNPLVWDYSPLLTIDTWEHAYYLDFENRRAEYINTFMEKLVSWETVSTRLESAIARAVQREQEGTETEDEENPDDEVPEVYLDSDIDVSEVD
B7: FSD3, endogenous (protein, UniProt Q9FMX0 42-263)
chain: GGLKVEAYYGLKTPPYPLDALEPYMSRRTLEVHWGKHHRGYVDNLNKQLGKDDRLYGYTMEELIKATYNNGNPLPEFNNAAQVYNHDFFWESMQPGGGDTPQKGVLEQIDKDFGSFTNFREKFTNAALTQFGSGWVWLVLKREERRLEVVKTSNAINPLVWDDIPIICVDVWEHSYYLDYKNDRAKYINTFLNHLVSWNAAMSRMARAEAFVNLGEPNIPIA
B8: pTAC12, endogenous (protein, UniProt F4IHY7 31-527)
chain: VKCGFPLKTLHAGITSRDRSLRHCIKCKKEDGDGDVSEGSKKSEEGFEYVTVERHPYHSYMDSTSGKLEPASGARASIPGEDYWPEGTSSRVRAARAPQPAGESSSFPSYGKNPGSRRKKNRKATEENVTVETNDEVSDSEDSSEEEENDSSDGFVTYKNEFEREEEETGFELDKKLGRPHPFIDPTKKKQIEKTLTSDESWWNWRKPEKEQWSRWQRRRPDVETVFLKAMAETGQVKLYGEEPTLTETSLYRARRHLFKEERLQAERERLAKEGPMAFYSEWVKAWKRDTSREAVQKHFEETGEDENTQLIEMFSHQTDREYRIMMGTDIRIKRDPLAMRMREDQIKQIWGGDPVYPTINYIQDPNAVMDFRGPDFHEPTPNMLSYLKENGKVISREMHEALLTKEKTEQLEVPDMDDAMAQAVDIGENDDDEDDADVEKDDEKVPRNWSVLKETPELRTAKPKPKKEGRMSLDEAVDDAENLTDFLMDFEEETDP
B9: pTAC14, endogenous (protein, UniProt Q84JF5 63-483)
chain: ASEESSSSELETADPDFYKIGYVRSVRAYGVEFKEGPDGFGVYASKDIEPRRRARVIMEIPLELMITIRQKHPWMFFPDIVPIGHPIFDIINSTDPEIDWDIRLACLLLFSFDRDDHFWRLYGDFLPAADECSSLLLATEEDLAELQDPDLVSTIRQQQKRILDFWEKNWHSGVPLKIKRLAEDPERFIWAVSMAQTRCISMQTRVGALVQELNMMIPYADMLNHSFEPNCFLHWRPKDRMLEVMSNAGQDIKKGEEMTINYMPGQKNNMLMERYGFSTPVNPWDAIKFSGDSRIHLNSFLSVFNIYGLPEEYYHDSELSRGDTFVDGAVIAAARTLPTWSDIDLPPIPSAERKAVKELQDECRKMLAEYPTTAEQDQKLLDSMSEARTTFATAVKYRMHRKMFIGKIIKALDIYQERLLY
B10: FLN1, endogenous (protein, UniProt Q9M394 39-471)
chain: ASINGSGITNGAAAETTSKPSRKGRKKKQTSTVIEKDNTETDPELNPELADYDDGIEFPYDDPPLVCCFGAVQKEFVPVVRVHDNPMHPDMYSQWKMLQWDPPEFGRAPGGPPSNVAISHVRLGGRAAFMGKVGEDDFGDELVLMMNQERVQTRAVKFDENSKTACTRVKIKFKDGKMMAETVKEPPEDSLFASELNLAVLKEARIFHFNSEVLTSPTMQSTLFTAIQWSKKFGGLIFFDLNLPLPLWRSRNETRKLIKKAWNEANIIEVSQQELEFLLDEDYYERRRNYTPQYFAEDFDQTKNRRDYYHYTPEEIKSLWHDKLKLLVVTDGTLRLHYYTPTFDGVVIGTEDVLITPFTCDRTGSGDAVVAGIMRKLTTCPEMFEDQDVMERQLRFAVAAGIIAQWTIGAVRGFPTESATQNLKEQVYVPSMW
B11: pTAC6, endogenous (protein, UniProt Q9XI19 60-328)
chain: ADGGGADEYDMDDEEVEEVDNKKDYDVEYDPLAAAIAAAGGGGDGDIAFVQSKSFISTQGWDSDMVVDYRINEDEFHKLSLMDCDFFIRKPPDPDNDVYDFREMYVTPPDTDIYSIPRVLAPMPQKYIRCAMSDYGCYNVTEPPIDAPRDPLYKSEREISKVFLTKHYRNRRTNDPEFVLDLEEIYVIDSKTKSITRARVLVTVPGGRKRDRKDDLLVIRDNGTSFKIIHVGERDDPTTVIEREEWTKTREDMEKHLRKLRDFSVSNWF
B12: pTAC10, endogenous (protein, UniProt F4JF21 41-668)
chain: GFSSDEFPVDETFLEKFGPKDKDTEDEARRRNWIERGWAPWEEILTPEADFARKSLNEGEEVPLQSPEAIEAFKMLRPSYRKKKIKEMGITEDEWYAKQFEIRGDKPPPLETSWAGPMVLRQIPPRDWPPRGWEVDRKELEFIREAHKLMAERVWLEDLDKDLRVGEDATVDKMCLERFKVFLKQYKEWVEDNKDRLEEESYKLDQDFYPGRRKRGKDYEDGMYELPFYYPGMVCEGTVTTLHLYQGAFVDIGGVHEGWVPIKGNDWFWIRHFIKVGMHVIVEITAKRDPYRFRFPLELRFVHPNIDHMIFNKFDFPPIFHRDGDTNPDEIRRDCGRPPEPRKDPGSKPEEEGLLSDHPYVDKLWQIHVAEQMILGDYEANPAKYEGKKLSELSDDEDFDEQKDIEYGEAYYKKTKLPKVILKTSVKELDLEAALTERQHHNKLMMEAKARGEGYKIDKLRRNIEMDEYDFLHWRRSLEEREALLRDISSRQALGLPLEEPGRYKPGSFFGKDQYDPTSALYQYDYWGEPKNSEISKQERMKDAHNKSIVGKGNVWYDMSYDDAIKQTIEKRKEGSTLASQEEETESEEEEEDDDDFDDFDYSILSDESSIGYSEQQPLVNGTQVLTD

Biological target: AtNusG:MYC (AtNusG:MYC_WT transgenic lines) (Arabidopsis thaliana)
Test: affinity purification with mass spectrometry; total leaf proteins of three-week-old AtNusG:MYC_WT transgenic lines, anti-MYC beads overnight, washes with 150 mM NaCl, 0.1% Triton-X100; LC-MS/MS

binding, binds:
B1
B2
B3
B4
B5
B6
B7
B8
B9
B10
B11
B12
